No constants are given. Whether binding was seen depends on the method and setting. A result given as binding can be weak or reduced; the word gives no strength.
B1: Chimeric C2C1A1A1 (antibody, human IgG4 S228P, kappa, V domains shown)
VH: EVQLVESGGGLVQPGGSLKLSCAASGFTFSTYGMSWVRQTPDKRLELVATINSNGGSTSYPDSVKGRFTISRDNAKNTLYLQMSSLKSEDTAMFYCARFFRFRNAMDYWGQGTSVTVSS
VL: DIQMTQSPASLSASVGETVTITCRTSENIYSYLAWYQQKQGKSPQFLVYNAKTLAEGVPSRFSGSGSGTQFSLNINSLQSEDFGSYYCQHYYGPPTWTFGGGTKLEIKR
B2: huC2C1A1A1-V15 (antibody, human IgG4 S228P, kappa, V domains shown)
VH: EVQLVESGGGLVQPGGSLRLSCAASGFTFSTYGMSWVRQAPGKGLVWVATINSNGGSTSYPDSVKGRFTISRDNAKNTLYLQMNSLRAEDTAVYYCARFFRFRNAMDYWGQGTLVTVSS
VL: DIQMTQSPSSLSASVGDRVTITCRTSENIYSYLAWYQQKPGKAPKFLVYNAKTLAEGVPSRFSGSGSGTDFTLTISSLQPEDFATYYCQHYYGPPTWTFGQGTKVEIKR
B3: huC2C1A1A1-V14 (antibody, human IgG4 S228P, kappa, V domains shown)
VH: B2 VH
VL: DIQMTQSPSSLSASVGQRVTITCRTSENIYSYLAWYQQKQGKPPRFLIYNAKTLAEGVPSRFSGSGSGTEFTLTITSLQAEDFGVYYCQHYYGPPTWTFGPGTKLEIKR

Molecular target: marmoset monkey IL4Rα-his protein (marmoset monkey)
Assay: SPR Biacore, mAb captured, marmoset IL4Rα-his analyte

binding, binds:
B1
B2
B3

Reference: patent US20240343815A1
